From ChEMBL document CHEMBL3988442, “University of Dundee, Small-Polar-MMV Screening Library” (2021).

Each number is a percent effect as filed. The controls that fix the scale are not given in the record; negative values are as filed. The compounds are a random part of those screened.

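Assay of Toxoplasma gondii numbers, read through their beta-galactosidase reporter with a colour substrate. Tested at 50 µM. Higher reads as fewer parasites (inferred from which compounds were picked for retests). About 18,000 compounds were tested under these conditions; 0.94% (about 170) showed 50% or more at least once.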

Result for O=C(CN1CCCCC1)Nc1cc(Br)ccn1 was 0.4673%.
Result for Cc1ccc(C2(O)CCNC2)cc1 (stereo unspecified) was -5.256%.
Result for CC(C)(CC(N)=O)NCc1ccc(F)c(C#N)c1 was 1.533%.
Result for CC(NC(=O)c1cnns1)c1ccccc1 (stereo unspecified) was -5.213%.
Result for CC(C)c1noc(OCC(=O)NC(C)(C#N)C(C)C)n1 (stereo unspecified) was 4.362%.
Result for Cc1cc(CN(C)c2ncccc2F)no1 was -1.163%.
Result for CN1CCN(CC2(CNC(=O)c3ccc[nH]3)CC2)CC1 was -8.378%.
Result for NS(=O)(=O)c1ccc(O)c(F)c1 was -5.973%.
Result for CC(C(=O)Nc1ccc(C#N)cc1)N1CCC(O)CC1 (stereo unspecified) was -2.147%.
Result for CC(c1cccnc1)N(C)C(=O)c1ccccc1C#N (stereo unspecified) was -2.098%.
Result for CCC(CO)N1CCN(c2nccnc2C#N)CC1 (stereo unspecified) was 10%.
Result for CNCc1cccc(O)c1 was -20.25%.
Result for Cc1ccc2c(c1)C(N)CO2 (stereo unspecified) was 5.283%.
Result for N#Cc1ccnc(-n2ccnc2)c1 was -4.727%.
Result for NCCCNCCCN was 6.533%.
Result for CC1=CC[C@@H]2CN(C(=O)c3n[nH]c(N)c3Cl)C[C@@H]2C1 was 6.038%.
Result for O=C(NCc1nnc2n1CCCCC2)c1ccoc1 was 4.757%.
Result for O=C(NCC1(O)CCOC1)c1coc2ccccc12 (stereo unspecified) was -3.025%.
Result for NC(=O)C1(N)Cc2ccccc2C1 was -4.593%.
Result for COCCNS(=O)(=O)C1CCCCC1 was -4.775%.
Result for O=C(CO)NC(Cc1ccccn1)c1ccc(Br)cc1 (stereo unspecified) was 4.645%.
Result for CCc1cc(C(=O)NC2(C(N)=O)CCCC2)cc(=O)[nH]1 was -0.04114%.
Result for CCCN1CCC(N2CCCC(CO)C2)CC1 (stereo unspecified) was -11.48%.
Result for COc1cccc(C(N)c2cccnc2)c1 (stereo unspecified) was -2.915%.
Result for COCCOCCn1cc(F)ccc1=O was 28.28%.
Result for CC(C)C1CNCCO1 (stereo unspecified) was 17.28%.
Result for CN(C)c1ncccc1CNc1nnc(C(F)F)o1 was -11.53%.
Result for O=C1CCCN1Cc1cccc(C(=O)N2CCC2)c1 was -1.195%.
Result for CN(CC(N)=O)Cc1cccc(OCC(F)(F)F)c1 was -1.128%.
Result for O=S(=O)(CCNc1cncc(Cl)n1)N1CCSCC1 was 27.72%.
Result for CC(C)C(O)CNC(=O)CC(C)(C)C (stereo unspecified) was -2.042%.
Result for Cc1nccn1CCCN1CCOCC1CO (stereo unspecified) was 8.987%.

The first 4 entries again:

- O=C(CN1CCCCC1)Nc1cc(Br)ccn1 : 0.4673%
- Cc1ccc(C2(O)CCNC2)cc1 (stereo unspecified) : -5.256%
- CC(C)(CC(N)=O)NCc1ccc(F)c(C#N)c1 : 1.533%
- CC(NC(=O)c1cnns1)c1ccccc1 (stereo unspecified) : -5.213%